No constants are given. Whether binding was seen depends on the method and setting. Binding seen in cells or lysates may run through a third protein. Some binding calls cover weakened binding; strength is not graded here. For some of these results: Sequences can lack the tags named with a protein. Values belong to the molecule of their own block, whether it stands above or below them.
Tests used:
Flag-JIP2 = target: T1, Flag-JIP2 (UniProt Q9ERE9); experiment: co-IP; lysates of HEK-293 cells transfected with Flag-JIP1, 2, 3 or 4; immunoprecipitation with anti-Flag antibody; blot for Flag and endogenous sacsin; lysis buffer 20 mM Hepes, 150 mM NaCl, 1 mM DTT, 1% Triton-X-100
T1 sequence: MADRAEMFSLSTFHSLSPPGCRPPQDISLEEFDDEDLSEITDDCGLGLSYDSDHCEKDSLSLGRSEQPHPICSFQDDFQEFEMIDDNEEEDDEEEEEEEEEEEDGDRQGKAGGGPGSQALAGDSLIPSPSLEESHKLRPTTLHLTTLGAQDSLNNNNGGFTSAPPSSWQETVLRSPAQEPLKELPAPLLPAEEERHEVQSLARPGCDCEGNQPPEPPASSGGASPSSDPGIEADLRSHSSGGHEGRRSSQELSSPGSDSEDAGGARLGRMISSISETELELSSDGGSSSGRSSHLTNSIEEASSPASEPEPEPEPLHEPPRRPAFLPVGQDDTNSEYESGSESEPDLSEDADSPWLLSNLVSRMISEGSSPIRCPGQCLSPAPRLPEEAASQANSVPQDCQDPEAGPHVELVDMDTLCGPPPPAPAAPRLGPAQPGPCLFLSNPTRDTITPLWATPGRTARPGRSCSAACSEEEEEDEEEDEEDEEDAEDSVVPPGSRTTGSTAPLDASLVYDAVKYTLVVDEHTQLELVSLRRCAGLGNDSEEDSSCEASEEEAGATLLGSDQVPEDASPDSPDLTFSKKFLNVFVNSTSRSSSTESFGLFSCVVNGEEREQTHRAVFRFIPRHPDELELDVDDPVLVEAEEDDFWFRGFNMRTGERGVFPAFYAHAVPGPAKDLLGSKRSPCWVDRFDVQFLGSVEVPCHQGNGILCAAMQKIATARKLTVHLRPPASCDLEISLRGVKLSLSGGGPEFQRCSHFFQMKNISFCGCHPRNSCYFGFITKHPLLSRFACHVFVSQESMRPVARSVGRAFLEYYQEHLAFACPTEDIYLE

By UniProt entry, the sequences of proteins in these tests, tags left out.
UniProt P33176: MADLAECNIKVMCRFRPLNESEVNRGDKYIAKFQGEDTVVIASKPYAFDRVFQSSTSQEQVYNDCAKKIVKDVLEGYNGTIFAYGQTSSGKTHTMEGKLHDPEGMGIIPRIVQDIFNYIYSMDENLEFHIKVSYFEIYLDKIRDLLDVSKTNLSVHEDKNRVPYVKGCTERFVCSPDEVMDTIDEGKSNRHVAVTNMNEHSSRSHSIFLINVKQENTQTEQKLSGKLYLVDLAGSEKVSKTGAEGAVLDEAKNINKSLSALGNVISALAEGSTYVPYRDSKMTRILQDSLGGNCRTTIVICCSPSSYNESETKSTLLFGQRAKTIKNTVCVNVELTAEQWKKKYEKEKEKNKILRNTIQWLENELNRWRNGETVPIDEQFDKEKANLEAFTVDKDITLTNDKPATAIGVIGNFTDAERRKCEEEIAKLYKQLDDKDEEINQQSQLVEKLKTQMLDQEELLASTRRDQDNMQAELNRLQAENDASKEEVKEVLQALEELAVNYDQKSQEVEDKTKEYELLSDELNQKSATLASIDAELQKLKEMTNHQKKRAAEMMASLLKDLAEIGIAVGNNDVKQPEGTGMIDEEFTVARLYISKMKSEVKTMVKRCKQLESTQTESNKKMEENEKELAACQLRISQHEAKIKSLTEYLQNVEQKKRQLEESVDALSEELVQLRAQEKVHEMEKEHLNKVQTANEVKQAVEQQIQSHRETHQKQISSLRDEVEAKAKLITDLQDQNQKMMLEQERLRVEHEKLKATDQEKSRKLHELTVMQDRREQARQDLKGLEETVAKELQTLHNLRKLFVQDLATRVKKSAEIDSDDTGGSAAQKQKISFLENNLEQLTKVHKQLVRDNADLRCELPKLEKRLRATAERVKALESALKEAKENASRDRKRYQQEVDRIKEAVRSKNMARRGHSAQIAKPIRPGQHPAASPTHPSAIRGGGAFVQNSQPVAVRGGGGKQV
UniProt Q9NZJ4: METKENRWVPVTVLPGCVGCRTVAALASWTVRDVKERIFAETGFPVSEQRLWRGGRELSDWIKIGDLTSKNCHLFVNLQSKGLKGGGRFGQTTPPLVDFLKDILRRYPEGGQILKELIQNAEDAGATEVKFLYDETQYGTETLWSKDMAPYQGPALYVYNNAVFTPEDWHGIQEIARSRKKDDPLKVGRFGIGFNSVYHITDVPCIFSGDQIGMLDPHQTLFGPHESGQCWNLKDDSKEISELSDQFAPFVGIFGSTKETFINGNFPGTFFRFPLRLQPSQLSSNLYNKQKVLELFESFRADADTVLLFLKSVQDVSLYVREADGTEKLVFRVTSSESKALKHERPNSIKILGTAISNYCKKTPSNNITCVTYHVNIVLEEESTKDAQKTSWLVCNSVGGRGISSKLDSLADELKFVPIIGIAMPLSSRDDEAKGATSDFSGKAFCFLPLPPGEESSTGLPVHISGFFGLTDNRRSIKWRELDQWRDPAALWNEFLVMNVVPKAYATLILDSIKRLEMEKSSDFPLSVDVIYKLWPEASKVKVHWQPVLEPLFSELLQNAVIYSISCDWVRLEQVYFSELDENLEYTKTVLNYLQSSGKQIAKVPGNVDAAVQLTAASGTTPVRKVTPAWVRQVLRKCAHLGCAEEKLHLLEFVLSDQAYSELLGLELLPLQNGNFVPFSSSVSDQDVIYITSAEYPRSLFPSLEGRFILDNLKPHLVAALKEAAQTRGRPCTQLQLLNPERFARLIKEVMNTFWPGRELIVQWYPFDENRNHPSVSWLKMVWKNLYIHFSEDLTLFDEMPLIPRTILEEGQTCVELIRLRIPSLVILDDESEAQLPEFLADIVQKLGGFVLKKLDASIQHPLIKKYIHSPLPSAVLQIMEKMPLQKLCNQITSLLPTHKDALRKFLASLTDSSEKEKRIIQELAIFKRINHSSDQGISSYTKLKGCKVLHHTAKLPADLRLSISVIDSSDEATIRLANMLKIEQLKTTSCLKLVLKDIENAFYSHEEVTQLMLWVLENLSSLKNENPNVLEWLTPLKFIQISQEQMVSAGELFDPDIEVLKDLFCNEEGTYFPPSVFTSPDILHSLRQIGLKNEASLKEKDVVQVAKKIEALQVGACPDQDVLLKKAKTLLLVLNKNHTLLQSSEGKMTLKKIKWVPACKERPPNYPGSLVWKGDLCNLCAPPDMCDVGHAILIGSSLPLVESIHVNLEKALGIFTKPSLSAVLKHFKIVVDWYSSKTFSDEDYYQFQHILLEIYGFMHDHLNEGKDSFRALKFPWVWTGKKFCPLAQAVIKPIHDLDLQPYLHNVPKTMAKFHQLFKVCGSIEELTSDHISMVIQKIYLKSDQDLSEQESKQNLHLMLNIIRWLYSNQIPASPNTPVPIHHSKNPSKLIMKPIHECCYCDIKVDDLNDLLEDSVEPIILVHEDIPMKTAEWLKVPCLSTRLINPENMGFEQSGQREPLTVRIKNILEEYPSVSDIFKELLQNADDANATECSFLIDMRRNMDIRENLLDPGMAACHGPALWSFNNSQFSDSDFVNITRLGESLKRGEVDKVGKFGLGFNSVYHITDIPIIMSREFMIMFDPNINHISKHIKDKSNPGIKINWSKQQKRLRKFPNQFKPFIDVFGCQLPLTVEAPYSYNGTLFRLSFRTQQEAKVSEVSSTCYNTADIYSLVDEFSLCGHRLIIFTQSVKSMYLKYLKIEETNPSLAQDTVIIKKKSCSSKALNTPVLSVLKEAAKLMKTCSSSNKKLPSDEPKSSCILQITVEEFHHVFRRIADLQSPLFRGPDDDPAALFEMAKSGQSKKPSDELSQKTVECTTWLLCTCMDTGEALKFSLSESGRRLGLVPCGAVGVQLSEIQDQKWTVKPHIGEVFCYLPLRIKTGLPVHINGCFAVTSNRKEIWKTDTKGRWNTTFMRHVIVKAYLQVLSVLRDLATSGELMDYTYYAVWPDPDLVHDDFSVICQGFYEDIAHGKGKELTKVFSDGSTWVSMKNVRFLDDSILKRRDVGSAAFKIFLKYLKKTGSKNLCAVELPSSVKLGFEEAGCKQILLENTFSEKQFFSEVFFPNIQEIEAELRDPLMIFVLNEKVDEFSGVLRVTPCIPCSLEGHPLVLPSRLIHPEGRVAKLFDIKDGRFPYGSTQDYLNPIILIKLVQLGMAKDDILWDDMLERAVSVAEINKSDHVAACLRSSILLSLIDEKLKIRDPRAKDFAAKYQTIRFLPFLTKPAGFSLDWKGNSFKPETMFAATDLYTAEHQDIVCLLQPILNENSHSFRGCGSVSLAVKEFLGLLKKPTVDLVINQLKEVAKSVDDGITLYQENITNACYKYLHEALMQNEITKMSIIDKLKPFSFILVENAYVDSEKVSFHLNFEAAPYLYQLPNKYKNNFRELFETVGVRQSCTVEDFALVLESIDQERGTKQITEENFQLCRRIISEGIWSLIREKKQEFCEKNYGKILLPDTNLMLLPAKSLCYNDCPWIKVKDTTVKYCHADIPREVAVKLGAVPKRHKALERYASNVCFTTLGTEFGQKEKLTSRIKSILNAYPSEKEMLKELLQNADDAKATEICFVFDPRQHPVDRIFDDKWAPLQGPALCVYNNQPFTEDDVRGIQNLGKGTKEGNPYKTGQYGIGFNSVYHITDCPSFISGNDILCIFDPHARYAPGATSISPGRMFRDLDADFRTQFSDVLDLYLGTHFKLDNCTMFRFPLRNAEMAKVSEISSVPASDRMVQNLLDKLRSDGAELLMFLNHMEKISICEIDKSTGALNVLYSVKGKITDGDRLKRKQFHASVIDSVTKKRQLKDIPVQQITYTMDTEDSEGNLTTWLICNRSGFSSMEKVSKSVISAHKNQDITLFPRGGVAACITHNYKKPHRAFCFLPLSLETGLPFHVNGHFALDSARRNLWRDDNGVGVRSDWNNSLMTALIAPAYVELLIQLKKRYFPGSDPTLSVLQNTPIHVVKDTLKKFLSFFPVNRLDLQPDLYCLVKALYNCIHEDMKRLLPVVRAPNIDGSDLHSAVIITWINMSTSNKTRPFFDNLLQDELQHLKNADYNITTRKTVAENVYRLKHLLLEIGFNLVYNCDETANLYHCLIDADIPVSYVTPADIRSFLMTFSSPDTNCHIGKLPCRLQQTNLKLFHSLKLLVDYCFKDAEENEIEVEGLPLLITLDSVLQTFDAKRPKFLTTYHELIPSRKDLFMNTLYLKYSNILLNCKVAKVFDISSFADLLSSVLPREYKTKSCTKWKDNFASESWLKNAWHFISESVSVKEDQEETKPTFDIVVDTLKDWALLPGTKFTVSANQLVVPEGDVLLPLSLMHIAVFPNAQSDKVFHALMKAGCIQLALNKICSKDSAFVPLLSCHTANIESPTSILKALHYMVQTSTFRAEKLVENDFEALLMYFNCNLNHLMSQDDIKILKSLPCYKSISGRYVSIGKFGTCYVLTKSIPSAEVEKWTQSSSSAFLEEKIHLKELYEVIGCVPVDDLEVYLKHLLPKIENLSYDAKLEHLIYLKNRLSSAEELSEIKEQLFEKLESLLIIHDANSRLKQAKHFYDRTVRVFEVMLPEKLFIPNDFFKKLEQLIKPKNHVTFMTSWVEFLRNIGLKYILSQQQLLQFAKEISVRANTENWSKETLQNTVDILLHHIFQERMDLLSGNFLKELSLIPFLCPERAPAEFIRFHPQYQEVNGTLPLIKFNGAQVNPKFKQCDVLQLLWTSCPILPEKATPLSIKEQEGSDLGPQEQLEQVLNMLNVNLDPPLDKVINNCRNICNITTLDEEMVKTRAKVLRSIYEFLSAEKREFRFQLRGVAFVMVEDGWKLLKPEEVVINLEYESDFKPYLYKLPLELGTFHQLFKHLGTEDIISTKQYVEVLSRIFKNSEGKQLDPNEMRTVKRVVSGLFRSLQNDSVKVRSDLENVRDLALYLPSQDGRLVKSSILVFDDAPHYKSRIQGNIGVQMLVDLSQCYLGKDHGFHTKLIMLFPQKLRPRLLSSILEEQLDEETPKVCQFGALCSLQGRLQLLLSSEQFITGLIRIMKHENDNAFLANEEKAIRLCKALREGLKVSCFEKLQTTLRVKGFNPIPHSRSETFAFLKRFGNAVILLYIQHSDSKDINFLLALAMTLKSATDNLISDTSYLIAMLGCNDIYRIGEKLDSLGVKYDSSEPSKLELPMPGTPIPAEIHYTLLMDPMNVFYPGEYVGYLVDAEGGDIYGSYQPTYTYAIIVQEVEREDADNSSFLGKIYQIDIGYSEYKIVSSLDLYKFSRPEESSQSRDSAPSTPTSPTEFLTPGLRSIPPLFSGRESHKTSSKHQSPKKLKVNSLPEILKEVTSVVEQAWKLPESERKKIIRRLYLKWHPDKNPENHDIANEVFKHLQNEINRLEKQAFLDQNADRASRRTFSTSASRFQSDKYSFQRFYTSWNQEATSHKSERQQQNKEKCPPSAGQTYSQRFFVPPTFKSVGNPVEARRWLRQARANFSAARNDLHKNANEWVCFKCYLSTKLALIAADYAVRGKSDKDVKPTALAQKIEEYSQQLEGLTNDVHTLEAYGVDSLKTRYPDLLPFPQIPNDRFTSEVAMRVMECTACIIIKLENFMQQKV

Flag-JIP1 = target: T2, Flag-JIP1 (UniProt Q9WVI9); experiment: as above
T2 sequence: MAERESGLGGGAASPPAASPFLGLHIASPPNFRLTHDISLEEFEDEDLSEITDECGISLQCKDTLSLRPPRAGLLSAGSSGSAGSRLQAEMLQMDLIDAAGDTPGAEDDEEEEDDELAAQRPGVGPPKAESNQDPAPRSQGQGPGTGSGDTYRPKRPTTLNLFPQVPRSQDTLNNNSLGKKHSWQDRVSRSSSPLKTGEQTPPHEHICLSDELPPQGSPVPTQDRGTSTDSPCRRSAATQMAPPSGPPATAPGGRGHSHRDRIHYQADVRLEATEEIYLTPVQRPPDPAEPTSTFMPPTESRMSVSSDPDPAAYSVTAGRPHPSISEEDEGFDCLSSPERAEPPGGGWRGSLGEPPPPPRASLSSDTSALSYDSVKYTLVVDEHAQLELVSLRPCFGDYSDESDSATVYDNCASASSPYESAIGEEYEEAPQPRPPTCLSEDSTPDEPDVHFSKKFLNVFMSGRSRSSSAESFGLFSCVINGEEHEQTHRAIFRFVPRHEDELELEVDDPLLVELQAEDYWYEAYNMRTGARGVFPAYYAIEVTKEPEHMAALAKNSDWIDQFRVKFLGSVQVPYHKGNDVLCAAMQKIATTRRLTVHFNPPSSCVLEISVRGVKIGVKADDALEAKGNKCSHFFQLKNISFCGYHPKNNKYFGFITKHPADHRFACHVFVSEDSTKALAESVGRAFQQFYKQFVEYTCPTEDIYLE

Kinesin-5B-GFP = Kinesin-5B-GFP (UniProt P33176); experiment: co-IP; lysates of HEK-293 cells transfected with Kinesin-5B-GFP or ARL-8-GFP; immunoprecipitation with anti-GFP antibody; blot for endogenous sacsin and GFP
[1] = target: sacsin (endogenous, mouse brain) (mouse (endogenous in mouse brain)) (UniProt Q9JLC8); experiment: co-IP; mouse brain lysate; immunoprecipitation with sacsin antibody; blot for JIP3 and sacsin

binding (Flag-JIP2): no binding
binding (Flag-JIP1): no binding
binding (Kinesin-5B-GFP): binds
Molecule: sacsin (endogenous, HEK-293 cells) (from UniProt Q9NZJ4 1-4579)

binding [1]: binds
B1: JIP3 (C-jun-amino-terminal kinase-interacting protein 3), endogenous, mouse brain (protein, UniProt Q9ESN9 1-1337)
chain: MMEIQMDEGGGVVVYQDDYCSGSVMSERVSGLAGSIYREFERLIHCYDEEVVKELMPLVVNVLENLDSVLSENQEHEVELELLREDNEQLLTQYEREKALRKQAEEKFIEFEDALEQEKKELQIQVEHYEFQTRQLELKAKNYADQISRLEERESEMKKEYNALHQRHTEMIQTYVEHIERSKMQQVGGSGQTESSLPGRSRKERPTSLNVFPLADGMVRAQMGGKLVPAGDHWHLSDLGQLQSSSSYQCPNDEMSESGQSSAAATPSTTGTKSNTPTSSVPSAAVTPLNESLQPLGDYVSVTKNNKQAREKRNSRNMEVQVTQEMRNVSIGMGSSDEWSDVQDIIDSTPELDVCPETRLERTGSSPTQGIVNKAFGINTDSLYHELSTAGSEVIGDVDEGADLLGEFSVRDDFFGMGKEVGNLLLENSQLLETKNALNVVKNDLIAKVDQLSGEQEVLKGELEAAKQAKVKLENRIKELEEELKRVKSEAVTARREPREEVEDVSSYLCTELDKIPMAQRRRFTRVEMARVLMERNQYKERLMELQEAVRWTEMIRASREHPSVQEKKKSTIWQFFSRLFSSSSSPPPAKRSYPSVNIHYKSPTAAGFSQRRSHALCQISAGSRPLEFFPDDDCTSSARREQKREQYRQVREHVRNDDGRLQACGWSLPAKYKQLSPNGGQEDTRMKNVPVPVYCRPLVEKDPSTKLWCAAGVNLSGWKPHEEDSSNGPKPVPGRDPLTCDREGEGEPKSTHPSPEKKKAKETPEADATSSRVWILTSTLTTSKVVIIDANQPGTIVDQFTVCNAHVLCISSIPAASDSDYPPGEMFLDSDVNPEDSGADGVLAGITLVGCATRCNVPRSNCSSRGDTPVLDKGQGDVATTANGKVNPSQSTEEATEATEVPDPGPSESEATTVRPGPLTEHVFTDPAPTPSSSTQPASENGSESNGTIVQPQVEPSGELSTTTSSAAPTMWLGAQNGWLYVHSAVANWKKCLHSIKLKDSVLSLVHVKGRVLVALADGTLAIFHRGEDGQWDLSNYHLMDLGHPHHSIRCMAVVNDRVWCGYKNKVHVIQPKTMQIEKSFDAHPRRESQVRQLAWIGDGVWVSIRLDSTLRLYHAHTHQHLQDVDIEPYVSKMLGTGKLGFSFVRITALLIAGNRLWVGTGNGVVISIPLTETVVLHRGQLLGLRANKTSPTSGEGTRPGGIIHVYGDDSSDKAASSFIPYCSMAQAQLCFHGHRDAVKFFVSVPGNVLATLNGSVLDSPSEGPGPAAPAADAEGQKLKNALVLSGGEGYIDFRIGDGEDDETEECAGDVNQTKPSLSKAERSHIIVWQVSYTPE

— publication PMC9437860
